The record followed here is patent publication US9155740B2, “Compositions and methods for treatment and prevention of hyperuricemia related health consequences” (priority 2004, dated 2015).

SMILES strings stand for the structures.

In one series the test system is fructose-fed rats. As to the kind of experiment: Prevention of fructose-induced hyperuricemia with allopurinol. It counts as in vivo, rat. To be noted: at 8 weeks; difference not significant. As for the experimental part:
[…] Three groups (control, Fr, and Fr+AP; n=8 each) were designed for this prevention study. Body weight was measured every 2 weeks. Food consumption was measured for 3 days at 8 weeks.
Measurements: Systolic blood pressure was assessed as the mean value of 3 consecutive measurements obtained in the morning using a tail-cuff sphygmomanometer (Visitech BP2000, Visitech Systems, Inc., Apex, N.C.). All animals were preconditioned for blood pressure measurements 1 wk before each experiment. Serum uric acid was measured by uricase method. Blood glucose was measured with the ONE TOUCH system (Johnson&Johnson, Milpitas, Calif.). Rat insulin was measured by ELISA (Crystal Chem. Inc., Chicago, Ill.). Insulin sensitivity index was calculated using the formula of Matsuda and DeFronzo (10,000/square root of [fasting glucose×fasting insulin]×[mean glucose×mean insulin during OGTT]), which is highly correlated (r=0.73, p<0.0001) with rate of whole-body glucose disposal during the euglycemic insulin clamp (Matsuda M and DeFronzo R A, Insulin sensitivity indices obtained from oral glucose tolerance testing: comparison with the euglycemic insulin clamp, Diabetes Care 22: 1462-1470, 1999). Serum lipids were measured with an autoanalyzer (VETAce, Alfa Wassermann Inc, West Caldwell, N.J.) or Triglyceride-SL assay kit (Diagnostic chemicals Limited, Charlottetown, PE, Canada).
Statistical analysis. […]

Series [1] is described as follows: Effect of allopurinol or benzbromarone on body weight and food consumption, control diet. It counts as in vivo, rat. As to conditions: vs control diet alone; for Total food consumption at 8 weeks: 150 mg/L drinking water; for final body weight: 8 weeks.

As for `Oc1ncnc2[nH]ncc12` [Allopurinol, allopurinol], the “total food intake over 3 days” value with fructose-fed rats worked out at 88 ± 4 g. Moreover, in series [1], the “Total food consumption at 8 weeks” value is “not different” and the final body weight entry is reported as “not different”.
For the compound `O=C(CO)[C@@H](O)[C@H](O)[C@H](O)CO` [Fr, fructose], the “total food intake over 3 days” value with fructose-fed rats was found to be 92 ± 2 g.
Regarding `CCc1oc2ccccc2c1C(=O)c1cc(Br)c(O)c(Br)c1` [benzbromarone, Benzbromarone], in series [1], the “Total food consumption at 8 weeks” value is recorded as “not different” and the final body weight entry is reported as “not different”.
